Values of other authors, collected in US10232043B2, “Photoactivated molecules for light-induced modulation of the activity of electrically excitable cells and methods of using the same” (UNIVERSITY OF SOUTHERN CALIFORNIA, priority 2015, dated 2019).
For at least one compound, name, drawing or mass did not settle the structure.

Details: cited from earlier work

Question: For `CCCCCCCCCCCCCCCCCc1ccnc(-c2cc(C)ccn2)c1.F[P-](F)(F)(F)(F)F.F[P-](F)(F)(F)(F)F.[Ru+2].c1ccc(-c2ccccn2)nc1.c1ccc(-c2ccccn2)nc1` [RubpyC17, [Ru(bpy)2(bpy-C17)](PF6)2], which “electron transfer rate ket from reductant ascorbate” value is on record?
Answer: ~2e+07 M⁻¹ s⁻¹
